## Melanoma cell counts after drug treatment

Drug key:
SNS-032: CC(C)(C)c1cnc(CSc2cnc(NC(=O)C3CCNCC3)s2)o1 at 0.05 µM
cediranib: COc1cc2c(Oc3ccc4[nH]c(C)cc4c3F)ncnc2cc1OCCCN1CCCC1 at 2 µM
nilutamide: CC1(C)NC(=O)N(c2ccc([N+](=O)[O-])c(C(F)(F)F)c2)C1=O at 5 µM
dovitinib: CN1CCN(c2ccc3nc(-c4c(N)c5c(F)cccc5[nH]c4=O)[nH]c3c2)CC1 at 0.5 µM
midostaurin: CO[C@@H]1[C@H](N(C)C(=O)c2ccccc2)C[C@H]2O[C@]1(C)n1c3ccccc3c3c4c(c5c6ccccc6n2c5c31)C(=O)NC4 at 0.4 µM
lestaurtinib: C[C@]12O[C@H](C[C@]1(O)CO)n1c3ccccc3c3c4c(c5c6ccccc6n2c5c31)CNC4=O at 0.02 µM
lenalidomide: Nc1cccc2c1CN(C1CCC(=O)NC1=O)C2=O (centres unmarked) at 5 µM
GW2580: COc1ccc(COc2ccc(Cc3cnc(N)nc3N)cc2OC)cc1 at 5 µM
cisplatin: N.N.[Cl][Pt][Cl] at 8 µM
FK866: O=C(/C=C/c1cccnc1)NCCCCC1CCN(C(=O)c2ccccc2)CC1 at 0.05 µM
GSK0660: COC(=O)c1sccc1S(=O)(=O)Nc1ccc(Nc2ccccc2)cc1OC at 5 µM
stibogluconate: O=C(O)[C@@H]1[O][Sb](=[O])([O][Sb]2(=[O])[O][C@H]([C@H](O)CO)[C@H](O)[C@H](C(=O)O)[O]2)[O][C@H]([C@H](O)CO)[C@@H]1O (some centres unmarked) at 10 µM
TCS401: O=C(O)C(=O)Nc1sc2c(c1C(=O)O)CCNC2 at 8.33 µM
LFM-A13: C/C(O)=C(\C#N)C(=O)Nc1cc(Br)ccc1Br at 10 µM
sorafenib: CNC(=O)c1cc(Oc2ccc(NC(=O)Nc3ccc(Cl)c(C(F)(F)F)c3)cc2)ccn1 at 2 µM

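The test systems are human melanoma cell lines, treated with two drugs together for 72 h and then stained and imaged. Values are the number of DAPI-stained nuclei as a percentage of the DMSO control: 100 is no effect, lower means fewer cells. Concentrations were fixed for each drug; these are the higher of two levels. These are primary screening values without error estimates.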 This is part of the screen, not chosen by result.

Pair	COLO 800	WM451Lu	COLO 792	C32	WM3619	COLO 829
SNS-032 and midostaurin	37.4	65.4	57.8	64.3	49.2	66.6
cediranib and lestaurtinib	50.7	83.0	54.1	92.1	97.9	79.7
stibogluconate and dovitinib	66.5	88.6	41.0	84.1	64.5	53.8
SNS-032 and GW2580	73.5	108	104	94.0	76.4	80.7
GSK0660 and FK866	18.9	89.8	46.2	89.8	54.9	63.1
GW2580 and dovitinib	62.9	74.2	49.8	86.6	74.7	50.7
GSK0660 and cisplatin	94.0	98.8	106	105	74.5	93.8
TCS401 and lenalidomide	91.1	116	108	88.6	96.2	124
dovitinib and cisplatin	58.6	88.7	63.1	71.1	75.1	68.5
TCS401 and FK866	45.6	89.8	49.6	105	97.8	78.3
cediranib and GSK0660	87.0	98.2	87.7	102	79.3	128
sorafenib and GSK0660	93.5	94.8	104	88.3	83.5	111
dovitinib and lenalidomide	117	115	55.0	86.0	94.4	66.4
cediranib and TCS401	69.7	79.9	86.2	95.9	84.5	96.6
cediranib and midostaurin	30.0	103	65.8	84.0	88.6	83.7
TCS401 and cisplatin	90.2	79.1	82.9	90.0	88.8	79.4
lenalidomide and GSK0660	92.7	91.7	103	101	134	103
midostaurin and GW2580	30.0	84.2	72.9	94.2	61.9	77.6
lestaurtinib and GSK0660	73.6	80.1	77.6	85.5	69.7	94.7
midostaurin and dovitinib	34.9	90.5	61.8	84.2	109	50.3
GW2580 and stibogluconate	97.4	93.4	89.4	97.4	92.5	111
stibogluconate and nilutamide	134	96.9	108	110	111	116
SNS-032 and sorafenib	124	90.5	76.9	76.6	72.6	124
LFM-A13 and GW2580	86.9	81.3	97.9	119	93.7	108
FK866 and LFM-A13	37.3	84.4	35.3	102	73.0	60.1
GW2580 and lestaurtinib	106	82.3	63.9	110	73.6	115
sorafenib and lenalidomide	104	145	111	113	140	120
nilutamide and sorafenib	49.8	126	109	111	115	95.7
sorafenib and GW2580	130	101	107	108	80.7	77.2
SNS-032 and lestaurtinib	52.0	50.8	54.8	67.0	96.4	111
sorafenib and cisplatin	62.7	89.7	107	91.7	83.9	111
GSK0660 and LFM-A13	60.3	105	121	90.2	55.3	106

The last 3 entries again:

- SNS-032 and lestaurtinib : COLO 800: 52.0; WM451Lu: 50.8; COLO 792: 54.8; C32: 67.0; WM3619: 96.4; COLO 829: 111
- sorafenib and cisplatin : COLO 800: 62.7; WM451Lu: 89.7; COLO 792: 107; C32: 91.7; WM3619: 83.9; COLO 829: 111
- GSK0660 and LFM-A13 : COLO 800: 60.3; WM451Lu: 105; COLO 792: 121; C32: 90.2; WM3619: 55.3; COLO 829: 106

Data from the primary screen of doi:10.1371/journal.pone.0140310, rounded.